{"source": "PubChem BioAssay AID1259308 (NCATS, 2017)", "aim": "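Candidate targets for better recombinant protein yield in mammalian cells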 (primary screen)", "cell system": "human HEK293 embryonic kidney cells stably expressing firefly luciferase (HEK-CMV-Luc2-Hygro)", "knock-down reagent": "single siRNA against human genes, 0.8 pmol siRNA per well", "time to read-out": "72 h", "read-out": "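Reporter luminescence and viable-cell signal on separate replicate plates, given as percent of non-targeting control and median/MAD z-scores, plus per-cell luciferase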", "reading the numbers": "total luciferase, z-score: higher = more reporter protein produced", "hit rule": "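Active when the median/MAD z-score for overall luciferase is greater than 3; a gene was taken forward for validation with new siRNAs if at least two of its three siRNAs passed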", "meaning of the calls": "active = raised luciferase; inactive = no rise", "note": "The deposit covers about 59,000 reagents; shown is a random part of them. Over the whole deposit, about 1,510 (2.6%) are marked active. 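Calls use total luciferase alone and ignore viability, so some active siRNAs may act by altering cell number.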 Further read-outs or replicates are left out here."}
{"gene knocked down": "SLC30A1 (GeneID 7779)", "PubChem SID": "SID160719328", "total luciferase, z-score": 4.6, "outcome": "active"}
{"gene knocked down": "SLC30A1 (GeneID 7779)", "PubChem SID": "SID160719330", "total luciferase, z-score": -1.51, "outcome": "inactive"}
{"gene knocked down": "SLC30A1 (GeneID 7779)", "PubChem SID": "SID160719331", "total luciferase, z-score": -2.04, "outcome": "inactive"}
{"gene knocked down": "HYAL2 (GeneID 8692)", "PubChem SID": "SID160732087", "total luciferase, z-score": -0.403, "outcome": "inactive"}
{"gene knocked down": "HYAL2 (GeneID 8692)", "PubChem SID": "SID160756136", "total luciferase, z-score": 0.279, "outcome": "inactive"}
{"gene knocked down": "HYAL2 (GeneID 8692)", "PubChem SID": "SID160756242", "total luciferase, z-score": 0.16, "outcome": "inactive"}
{"gene knocked down": "STAU2 (GeneID 27067)", "PubChem SID": "SID160738310", "total luciferase, z-score": 0.169, "outcome": "inactive"}
{"gene knocked down": "STAU2 (GeneID 27067)", "PubChem SID": "SID160738311", "total luciferase, z-score": -0.43, "outcome": "inactive"}
{"gene knocked down": "STAU2 (GeneID 27067)", "PubChem SID": "SID160738312", "total luciferase, z-score": -1.68, "outcome": "inactive"}
{"gene knocked down": "TXNRD2 (GeneID 10587)", "PubChem SID": "SID160728799", "total luciferase, z-score": 0.734, "outcome": "inactive"}
{"gene knocked down": "TXNRD2 (GeneID 10587)", "PubChem SID": "SID160728800", "total luciferase, z-score": 1.06, "outcome": "inactive"}
{"gene knocked down": "TXNRD2 (GeneID 10587)", "PubChem SID": "SID160730454", "total luciferase, z-score": -0.0603, "outcome": "inactive"}
{"gene knocked down": "PPP2R2B (GeneID 5521)", "PubChem SID": "SID160714795", "total luciferase, z-score": 0.191, "outcome": "inactive"}
{"gene knocked down": "PPP2R2B (GeneID 5521)", "PubChem SID": "SID160714797", "total luciferase, z-score": 1.14, "outcome": "inactive"}
{"gene knocked down": "PPP2R2B (GeneID 5521)", "PubChem SID": "SID160714798", "total luciferase, z-score": -0.569, "outcome": "inactive"}
{"gene knocked down": "SARS2 (GeneID 54938)", "PubChem SID": "SID160742545", "total luciferase, z-score": -0.962, "outcome": "inactive"}
{"gene knocked down": "SARS2 (GeneID 54938)", "PubChem SID": "SID160742546", "total luciferase, z-score": 0.805, "outcome": "inactive"}
{"gene knocked down": "SARS2 (GeneID 54938)", "PubChem SID": "SID160742547", "total luciferase, z-score": -0.634, "outcome": "inactive"}
{"gene knocked down": "CENPA (GeneID 1058)", "PubChem SID": "SID160741774", "total luciferase, z-score": 1.68, "outcome": "inactive"}
{"gene knocked down": "CENPA (GeneID 1058)", "PubChem SID": "SID160741782", "total luciferase, z-score": 0.529, "outcome": "inactive"}
{"gene knocked down": "CENPA (GeneID 1058)", "PubChem SID": "SID160741793", "total luciferase, z-score": 0.0603, "outcome": "inactive"}
{"gene knocked down": "SLIT3 (GeneID 6586)", "PubChem SID": "SID160717014", "total luciferase, z-score": -0.334, "outcome": "inactive"}
{"gene knocked down": "SLIT3 (GeneID 6586)", "PubChem SID": "SID160717015", "total luciferase, z-score": 0.685, "outcome": "inactive"}
{"gene knocked down": "SLIT3 (GeneID 6586)", "PubChem SID": "SID160717016", "total luciferase, z-score": 0.047, "outcome": "inactive"}
{"gene knocked down": "CYP4X1 (GeneID 260293)", "PubChem SID": "SID160762643", "total luciferase, z-score": 1.45, "outcome": "inactive"}
{"gene knocked down": "CYP4X1 (GeneID 260293)", "PubChem SID": "SID160762644", "total luciferase, z-score": 1.51, "outcome": "inactive"}
{"gene knocked down": "CYP4X1 (GeneID 260293)", "PubChem SID": "SID160762645", "total luciferase, z-score": -0.501, "outcome": "inactive"}
{"gene knocked down": "SPTB (GeneID 6710)", "PubChem SID": "SID160717307", "total luciferase, z-score": -0.494, "outcome": "inactive"}
{"gene knocked down": "SPTB (GeneID 6710)", "PubChem SID": "SID160717308", "total luciferase, z-score": 0.157, "outcome": "inactive"}
{"gene knocked down": "SPTB (GeneID 6710)", "PubChem SID": "SID160717309", "total luciferase, z-score": 0.203, "outcome": "inactive"}
{"gene knocked down": "ITPRID2 (GeneID 6744)", "PubChem SID": "SID160717377", "total luciferase, z-score": -0.368, "outcome": "inactive"}
{"gene knocked down": "ITPRID2 (GeneID 6744)", "PubChem SID": "SID160717378", "total luciferase, z-score": -0.169, "outcome": "inactive"}
{"gene knocked down": "ITPRID2 (GeneID 6744)", "PubChem SID": "SID160717379", "total luciferase, z-score": -1.43, "outcome": "inactive"}
{"gene knocked down": "TRIM22 (GeneID 10346)", "PubChem SID": "SID160728223", "total luciferase, z-score": 2.74, "outcome": "inactive"}
{"gene knocked down": "TRIM22 (GeneID 10346)", "PubChem SID": "SID160728224", "total luciferase, z-score": 1.57, "outcome": "inactive"}
{"gene knocked down": "TRIM22 (GeneID 10346)", "PubChem SID": "SID160728225", "total luciferase, z-score": 0.635, "outcome": "inactive"}
{"gene knocked down": "SRXN1 (GeneID 140809)", "PubChem SID": "SID160757904", "total luciferase, z-score": -0.482, "outcome": "inactive"}
{"gene knocked down": "SRXN1 (GeneID 140809)", "PubChem SID": "SID160757905", "total luciferase, z-score": -2.02, "outcome": "inactive"}
{"gene knocked down": "SRXN1 (GeneID 140809)", "PubChem SID": "SID160757907", "total luciferase, z-score": 1.38, "outcome": "inactive"}
{"gene knocked down": "OR6K2 (GeneID 81448)", "PubChem SID": "SID160750728", "total luciferase, z-score": 0.128, "outcome": "inactive"}
{"gene knocked down": "OR6K2 (GeneID 81448)", "PubChem SID": "SID160750729", "total luciferase, z-score": -1.4, "outcome": "inactive"}
{"gene knocked down": "OR6K2 (GeneID 81448)", "PubChem SID": "SID160750730", "total luciferase, z-score": 1.3, "outcome": "inactive"}

Entries listed above marked active (1):
{"gene knocked down": "SLC30A1 (GeneID 7779)", "PubChem SID": "SID160719328", "total luciferase, z-score": 4.6, "outcome": "active"}
